Measured values from article PMC10831248, “Characterization of membrane protein interactions by peptidisc-mediated mass photometry” (iScience, 2024).
Results are given in words; binding and its absence hold for the method and conditions named. Some entries that bind do so weakly or less than the wild type.

Key:
[1] = biological target: T1, vitamin B12 ABC transporter BtuCD, reconstituted in peptidiscs (E. coli) (UniProt P06609+P06611); experiment: mass photometry; as a1, but with 1 mM ATP in all mixtures; both purified
T1 sequence 1: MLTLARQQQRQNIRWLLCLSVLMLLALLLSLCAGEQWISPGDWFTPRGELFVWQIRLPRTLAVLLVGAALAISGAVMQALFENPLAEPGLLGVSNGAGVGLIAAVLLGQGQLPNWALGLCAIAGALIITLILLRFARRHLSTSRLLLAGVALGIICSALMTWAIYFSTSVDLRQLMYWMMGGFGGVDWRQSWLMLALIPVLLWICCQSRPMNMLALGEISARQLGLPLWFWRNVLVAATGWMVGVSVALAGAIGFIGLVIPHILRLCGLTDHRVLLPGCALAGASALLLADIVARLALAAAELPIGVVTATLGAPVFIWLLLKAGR
T1 sequence 2: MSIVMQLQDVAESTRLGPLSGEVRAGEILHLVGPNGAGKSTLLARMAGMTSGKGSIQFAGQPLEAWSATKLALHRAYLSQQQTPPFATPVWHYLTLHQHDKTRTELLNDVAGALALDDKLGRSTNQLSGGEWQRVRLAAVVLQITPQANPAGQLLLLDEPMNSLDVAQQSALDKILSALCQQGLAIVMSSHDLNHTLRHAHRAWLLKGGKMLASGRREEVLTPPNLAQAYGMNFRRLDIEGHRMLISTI

[2] = biological target: T1, vitamin B12 ABC transporter BtuCD, reconstituted in peptidiscs (E. coli); experiment: mass photometry; BtuCD in peptidiscs held at ~200 nM, mixed with BtuF (molar excess; titration 0-1200 nM by the methods, 0 to 900 nM by the results); PBS plus 5 mM MgCl2, room temperature, 30 min; 2 uL diluted into 20 uL PBS just before measuring; no ATP; in solution, nothing immobilised; both purified
[3] = biological target: T2, BtuC subunit of BtuCD (E. coli) (UniProt P06609); experiment: mass photometry; SEC fractions of His-tagged membrane proteins purified on Ni-NTA and reconstituted into peptidiscs, diluted 100-fold in PBS to ~5-20 nM; main species: subunits together in the native oligomer or complex in one disc; both purified
T2 sequence: T1 sequence 1

B1: periplasmic B12 binding protein BtuF (natural protein)
chain: APRVITLSPANTELAFAAGITPVGVSSYSDYPPQAQKIEQVSTWQGMNLERIVALKPDLVIAWRGGNAERQVDQLASLGIKVMWVDATSIEQIANALRQLAPWSPQPDKAEQAAQSLLDQYAQLKAQYADKPKKRVFLQFGINPPFTSGKESIQNQVLEVCGGENIFKDSRVPWPQVSREQVLARSPQAIVITGGPDQIPKIKQYWGEQLKIPVIPLTSDWFERASPRIILAAQQLCNALSQVD
- binding [1]: binds
- binding [2]: binds

B2: BtuD subunit of BtuCD (protein, UniProt P06611 1-249)
chain: T1 sequence 2
- binding [3]: binds
